What was measured:
[1] = general procedure: Fmoc solid-phase peptide synthesis; Tentagel Rink Amide resin; H-Pro-2-ClTrt resin; DIC/HOBt; details: for final HPLC purity: whole synthesis, scale of the general procedure 0.05-0.9 mmol
[2] = general procedure: Fmoc solid-phase peptide synthesis; Tentagel Rink resin; DIC/HOBt; details: whole synthesis, scale 0.05 mmol

Substance	final HPLC purity [1]	isolated yield ([2]; on loading of starting resin, assuming 85% peptide content)	isolated mass [2]	step yield ([1]; coupling step, on amount of N-terminal heptapeptide used, assuming 85% peptide content)
carba-6-[Cpa^2,Hyp^7,Gly(cPe)]dOT	100.0%	˜66%	40.0 mg	
[AzGly^9]dOT	100.0%			˜39%
